A short description of data set [1]: general procedure: Fmoc solid-phase peptide synthesis; Rink amide MBHA resin; Fmoc-Phe-ClTrt resin (0.4699 mmole/g); HCTU (double couplings); PyAOP/HOBt/DIEA for lactam formation. Particulars: analytical HPLC.
Data set [2] in a line: general procedure: Fmoc solid-phase peptide synthesis; Fmoc-4FPhe-ClTrt resin; HCTU (double couplings); PyAOP/HOBt/DIEA for lactam formation. The note with it: whole synthesis, scale 0.2 mmol.
Data set [3] in a line: general procedure: Fmoc solid-phase peptide synthesis; Fmoc-Phe-ClTrt resin; HCTU (double couplings); PyAOP/HOBt/DIEA for lactam formation. Particulars: whole synthesis, analytical HPLC, scale 0.2 mmol.
Setting [4] is: whole synthesis, scale of the general procedure 0.2 mmole (2×0.1 mmol each reaction vessel).

Non-standard residues stand in square brackets, D forms with d. Phe(4-F) = N[C@@H](Cc1ccc(F)cc1)C(=O)O; 4Pal = N[C@@H](Cc1ccncc1)C(=O)O

Turning to “1-[(ethan-2-oyl)-Doc-Doc-Tyr-psi(CH2NH)-cyclo(DLys-Arg-Phe-Phe-DTrp-Lys-Thr-Tyr)],4-[(propan-3-oyl)-Doc-Doc-Tyr-psi(CH2NH)-cyclo(DLys-Arg-Phe-Phe-DTrp-Lys-Thr-Tyr)]-1,2,3-triazole”, the “final HPLC purity” value in data set [1] (setting [4]) was found to be 98.5%. On to “1-[(ethan-2-oyl)-Tyr-psi(CH2NH)-cyclo(DLys-Arg-Phe-Phe-DTrp-Lys-Thr-4FPhe)],4-[(propan-3-oyl)-Tyr-psi(CH2NH)-cyclo(DLys-Arg-Phe-Phe-DTrp-Lys-Thr-4FPhe)]-1,2,3-triazole”, for which the “final HPLC purity” value in data set [1] (conjugation step) amounted to 97.4%.

As for “1-[(ethan-2-oyl)-Tyr-psi(CH2NH)-cyclo(DLys-Arg-Phe-Phe-DTrp-Lys-Thr-Tyr)],4-[(propan-3-oyl)-Tyr-psi(CH2NH)-cyclo(DLys-Arg-Phe-Phe-DTrp-Lys-Thr-Tyr)]-1,2,3-triazole”, the “final HPLC purity” value in data set [1] (setting [4]) is given as 98.8%. Take “DTyr-cyclo(DLys-Arg-Phe-Phe-DTrp-Lys-Thr-4FPhe)”: in data set [2] (based on 0.2 mmol scale), the isolated yield amounted to 98.8%. The substance further had an isolated mass in data set [2] of 123.1 mg. The “final HPLC purity” value in data set [1] (setting [4]) is reported as 98.8%. With “Tyr-cyclo(DLys-Arg-Phe-4Pal-DTrp-Lys-Thr-Phe)”, in data set [1] (setting [4]), the “final HPLC purity” value turned out to be 98.8%. In the case of “Tyr-cyclo(DLys-Arg-Phe-4Pal-DTrp-Lys-Thr-Tyr)”, the “final HPLC purity” value in data set [1] (setting [4]) came out at 94.4%. With “Tyr-psi(CH2NH)-cyclo(DLys-Arg-Phe-4Pal-DTrp-Lys-Thr-Phe)”, the “final HPLC purity” value in data set [3] amounted to 97.5%.

cyclo([dK]RFF[dW]KTF): in data set [1] (setting [4]), the “final HPLC purity” value was found to be 99.7%. Still for that read-out and setting: with cyclo([dK]RFF[dW]KT[Phe(4-F)]) the figure was 99.5%. Same read-out and setting: in the case of cyclo([dK]RF[4Pal][dW]KTF) it was 98.9%. As for cyclo([dK]RF[4Pal][dW]KTY), in data set [1] (setting [4]), the “final HPLC purity” value is on record as 99.3%.

Values taken from patent US9777039B2 (Ipsen Pharma S.A.S., priority 2012, dated 2017).
